Assay results reported in PMC6967296.
These are yes or no findings as the source states them, for the method shown. In cells and extracts the contact can be indirect. Some entries that bind do so weakly or less than the wild type. Sequences can lack the tags named with a protein.

The chains behind the UniProt entries cited, without tags or fusion partners.
UniProt O95863: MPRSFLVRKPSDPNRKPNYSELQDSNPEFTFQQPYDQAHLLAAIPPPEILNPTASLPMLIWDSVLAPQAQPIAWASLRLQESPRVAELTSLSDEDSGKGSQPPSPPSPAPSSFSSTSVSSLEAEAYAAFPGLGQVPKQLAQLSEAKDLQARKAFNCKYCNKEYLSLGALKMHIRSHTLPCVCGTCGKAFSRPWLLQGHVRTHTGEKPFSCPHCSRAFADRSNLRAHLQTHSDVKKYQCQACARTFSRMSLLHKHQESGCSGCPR

Tests used:
[1] = molecular target: T1, Flag-USP37 (expressed in H1299 cells) (human) (UniProt Q86T82); experiment: co-IP; Flag-USP37 transiently expressed in H1299 cells; precipitated with Flag antibody, endogenous Snail detected with anti-Snail antibody
T1 sequence: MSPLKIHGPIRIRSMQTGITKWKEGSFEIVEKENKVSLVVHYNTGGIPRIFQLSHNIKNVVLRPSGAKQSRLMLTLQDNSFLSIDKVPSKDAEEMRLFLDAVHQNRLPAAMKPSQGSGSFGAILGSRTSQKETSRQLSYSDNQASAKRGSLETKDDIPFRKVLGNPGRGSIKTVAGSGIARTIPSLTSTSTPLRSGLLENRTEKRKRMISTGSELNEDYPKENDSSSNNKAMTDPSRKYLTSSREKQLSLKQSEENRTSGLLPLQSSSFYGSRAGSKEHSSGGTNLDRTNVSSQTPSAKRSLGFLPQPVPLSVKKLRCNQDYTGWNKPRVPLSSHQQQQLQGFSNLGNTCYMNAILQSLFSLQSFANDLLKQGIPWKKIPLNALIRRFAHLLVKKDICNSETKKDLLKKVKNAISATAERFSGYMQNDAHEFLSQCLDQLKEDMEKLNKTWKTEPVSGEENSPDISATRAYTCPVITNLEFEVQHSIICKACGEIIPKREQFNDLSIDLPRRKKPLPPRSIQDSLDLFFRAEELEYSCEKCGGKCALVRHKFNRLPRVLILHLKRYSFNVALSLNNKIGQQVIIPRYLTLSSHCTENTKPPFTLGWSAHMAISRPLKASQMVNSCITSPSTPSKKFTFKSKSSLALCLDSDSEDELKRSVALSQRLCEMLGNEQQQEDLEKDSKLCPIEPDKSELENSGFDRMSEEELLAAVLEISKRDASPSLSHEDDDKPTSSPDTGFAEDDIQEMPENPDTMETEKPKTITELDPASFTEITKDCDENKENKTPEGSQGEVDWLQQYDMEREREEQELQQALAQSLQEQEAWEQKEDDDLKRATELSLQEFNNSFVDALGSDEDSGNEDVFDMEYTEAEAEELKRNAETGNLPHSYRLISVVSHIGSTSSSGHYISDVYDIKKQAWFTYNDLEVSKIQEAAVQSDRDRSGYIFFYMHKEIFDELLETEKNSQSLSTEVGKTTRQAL

[2] = molecular target: T2, Flag-USP37 (human) (UniProt Q86T82); experiment: co-IP; both proteins transiently co-expressed in 293T cells; lysis 48 h post-transfection in 20 mM Tris-HCl pH 8.0, 150 mM NaCl, 2.5 mM EDTA, 0.5% NP40; precipitated with Flag-M2 beads, Western blot with HA or Myc antibody
T2 sequence: T1 sequence

## endogenous Snail protein (from UniProt O95863 1-264)
[1]
  binding: binds

## HA-Snail (from UniProt O95863 1-264)
[2]
  binding: binds
